Assay [1] deals with T1, Escherichia coli CsdE (Escherichia coli), P0AGF2.
T1 chain: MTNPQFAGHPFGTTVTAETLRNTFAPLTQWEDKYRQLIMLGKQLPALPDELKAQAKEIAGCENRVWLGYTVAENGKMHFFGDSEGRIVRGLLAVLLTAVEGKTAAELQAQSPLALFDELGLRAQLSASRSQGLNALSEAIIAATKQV
Briefly: crystal structure; native CsdE at 40 mg/ml in 10 mM Tris-HCl pH 8, 2 mM 2-mercaptoethanol; crystallised in 0.1 M sodium citrate pH 6.5, 20% (w/v) PEG-MME 2000 at 297 K; two monomers in the asymmetric unit joined by a Cys61-Cys61 disulfide bridge; phased by Se-SAD on SeMet crystals; both purified. As to conditions: remark: other sources report otherwise.

For assay [2], the target named is Escherichia coli CsdE (Escherichia coli) (UniProt P0AGF2). Briefly: condition: only with excess reducing agent in the protein stock; SEC; gel filtration of the CsdE protein stock with excess reducing agent; both purified.

These are yes or no findings as the source states them, for the method shown. Some entries that bind do so weakly or less than the wild type.

B1: Escherichia coli CsdE, P0AGF2 1-147 (natural protein)
chain: MTNPQFAGHPFGTTVTAETLRNTFAPLTQWEDKYRQLIMLGKQLPALPDELKAQAKEIAGCENRVWLGYTVAENGKMHFFGDSEGRIVRGLLAVLLTAVEGKTAAELQAQSPLALFDELGLRAQLSASRSQGLNALSEAIIAATKQV
As for B1, the binding entry in assay [1] was “binds”.

B2: Escherichia coli CsdE (protein, UniProt P0AGF2 1-147)
chain: MTNPQFAGHPFGTTVTAETLRNTFAPLTQWEDKYRQLIMLGKQLPALPDELKAQAKEIAGCENRVWLGYTVAENGKMHFFGDSEGRIVRGLLAVLLTAVEGKTAAELQAQSPLALFDELGLRAQLSASRSQGLNALSEAIIAATKQV
As to B2, in assay [2], the binding result is “no binding”.

The values are drawn from publication PMC5646864.
